Source: publication doi:10.1101/2025.01.07.631699

The chains behind the UniProt entries cited, without tags or fusion partners.
UniProt P48727: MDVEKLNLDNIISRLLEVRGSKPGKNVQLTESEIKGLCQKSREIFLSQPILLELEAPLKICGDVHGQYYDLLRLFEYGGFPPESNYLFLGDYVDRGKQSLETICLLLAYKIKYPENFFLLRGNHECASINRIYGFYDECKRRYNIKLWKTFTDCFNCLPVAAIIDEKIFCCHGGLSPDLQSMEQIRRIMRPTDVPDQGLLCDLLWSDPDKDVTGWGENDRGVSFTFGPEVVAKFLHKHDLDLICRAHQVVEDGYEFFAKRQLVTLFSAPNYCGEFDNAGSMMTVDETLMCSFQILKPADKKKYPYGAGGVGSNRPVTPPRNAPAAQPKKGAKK

Biological target: mNeonGreen tagged GSP-2 (C. elegans) (UniProt P48727)
Experiment: affinity purification with mass spectrometry; mNeonGreen-Trap agarose beads with about 3 mg embryonic extract of the mNG::gsp-2 strain, 4°C for 1.5 h; IP buffer 100 mM KCl, 50 mM Tris pH 7.5, 1 mM MgCl2, 1 mM DTT, 5% glycerol, 0.2% NP-40, 1 mM EDTA; N2 strain as control; triplicate; DIA mass spectrometry

Substance: SZY-2(I-2) (from UniProt Q9N537)
- binding: binds

No constants are given. Whether binding was seen depends on the method and setting. In cells and extracts the contact can be indirect. These calls come from enrichment with a bait or labelling near it, and not all partners need be listed.
